Source: PMC3976342
Results are given in words; binding and its absence hold for the method and conditions named. Binding calls can cover weak binding; strength is not graded here. Sequences can lack the tags named with a protein.

Target: Nhtt150Q-EGFP (exon 1 of huntingtin containing 150Q, tagged with EGFP at its C-terminus)
Assay: co-insolubilisation (gel top band on Western blot); neuro2a cells co-transfected with Nhtt-EGFP and V5-tagged proteins, one day, cells boiled in SDS sample buffer, Western blot with anti-V5 and anti-GFP; gel top bands of the V5-tagged protein

| Binder | binding |
| --- | --- |
| Tcf20 (1∼400)-V5 (domain or fragment, UniProt Q9EPQ8 1-400) MQSFREQSSYHGNQQSYPQEVHSSSRIEEFSPRQAQMFQNFGGAGGGSSGTGSSSSGRRGTAAAAAAMASETSGHQGYQGFRKEAGDFYYMAGNKDTVAAGTPQPPQRRPSGPVQSYGPPQGSSFGNQYASEGHVSQFQAQHSALGGVSHYQQDYTGPFSPGSAQYQQQASSQQQQQQQQQQQQQQQQQQQQVQQLRQQLYQSHQPLPQTTGQPASGSSHLQPMQRPSTLPSSAGYQLRVGQFGQHYQSSASSSSSSSFPSPQRFSQSGQSYDGSYSVNAGSQYEGHNVGSNAQAYGTQSNYSYQPQSMKNFEQAKIPPGNQQGQQQQQQQPQPQQQQPQQQQQQQQQQQHPPQHVMQYTNAATKMPLQSQVGQYNQPEVPVRSPMQFHQNFSPISNPSP | binds |
| Tcf20 (1∼500)-V5 (domain or fragment, UniProt Q9EPQ8 1-500) MQSFREQSSYHGNQQSYPQEVHSSSRIEEFSPRQAQMFQNFGGAGGGSSGTGSSSSGRRGTAAAAAAMASETSGHQGYQGFRKEAGDFYYMAGNKDTVAAGTPQPPQRRPSGPVQSYGPPQGSSFGNQYASEGHVSQFQAQHSALGGVSHYQQDYTGPFSPGSAQYQQQASSQQQQQQQQQQQQQQQQQQQQVQQLRQQLYQSHQPLPQTTGQPASGSSHLQPMQRPSTLPSSAGYQLRVGQFGQHYQSSASSSSSSSFPSPQRFSQSGQSYDGSYSVNAGSQYEGHNVGSNAQAYGTQSNYSYQPQSMKNFEQAKIPPGNQQGQQQQQQQPQPQQQQPQQQQQQQQQQQHPPQHVMQYTNAATKMPLQSQVGQYNQPEVPVRSPMQFHQNFSPISNPSPAASVVQSPSCSSTPSPLMQSGENLQCGQGNVPMSSRNRILQLMPQLSPTPSMMPSPNSHAAGFKGFGLEGVPEKRLTDPGLSSLSALSSQVANLPNTVQH | binds |
